PubChem BioAssay AID743121 | NCATS – 2013
Aim: 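Partners whose loss is lethal together with topoisomerase I blockade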 (primary screen). Cells: MDA-MB-231 cells, a human breast cancer line. Reagent: single siRNA against human genes, 20 nM siRNA (0.8 pmol per well). Timing: 120 h (drug added 48 h after transfection, read 72 h later). Treatment: camptothecin 20 nM (about EC30) for 72 h; vehicle 0.1% DMSO in parallel plates. Measurement: 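Cell viability by ATP luminescence (CellTiter-Glo) as % of non-targeting siRNA wells, and the log2 ratio of viability without drug over viability with camptothecin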. Scale: log2 vehicle/camptothecin viability: higher = stronger sensitisation to camptothecin. Call rule: 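Active genes have an RSA gene-level p-value below 0.001, computed from the ratios of their separate siRNAs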.
The whole screen tested about 26,000 reagents; shown is a random part of them. Over the whole deposit, 167 (0.63%) were called active. 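Calls are per gene from RSA p-values that are not deposited; an individual active-marked siRNA can sensitise only weakly.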 A number with no mark means an inactive call. Reagents against one gene are numbered here. Not all columns of the deposit are shown.

Gene | reagent no. | log2 vehicle/camptothecin viability
SLC25A24 | 1 | 0.0641
SLC25A24 | 2 | -0.352
SLC25A24 | 3 | 0.593
GM2A | 1 | 0.4
GM2A | 2 | -0.171
GM2A | 3 | -0.176
GM2A | 4 | -0.0521
CD19 | 1 | 0.00919
CD19 | 2 | 0.00371
CD19 | 3 | -0.712
LYNX1 | 1 | 0.0849
LYNX1 | 2 | -0.313
LYNX1 | 3 | -0.898
LYNX1 | 4 | -0.284
LYNX1 | 5 | 1.02
LYNX1 | 6 | -0.626
LYNX1 | 7 | 0.477
LYNX1 | 8 | -0.298
LYNX1 | 9 | -0.151
SLC6A13 | 1 | 0.318
SLC6A13 | 2 | -0.381
SLC6A13 | 3 | 0.304
SLC6A13 | 4 | -0.193
UBE2A | 1 | -0.197
UBE2A | 2 | -0.208
UBE2A | 3 | -0.222
UBE2A | 4 | 0.0343
OR2B11 | 1 | -0.149
OR2B11 | 2 | 0.196
OR2B11 | 3 | -0.417
OR2B11 | 4 | -0.439
EEF2K | 1 | -0.158
EEF2K | 2 | 0.197
EEF2K | 3 | -0.303
EEF2K | 4 | 0.208
NPAS2 | 1 | 0.289
NPAS2 | 2 | -0.0242
NPAS2 | 3 | -0.145
NPAS2 | 4 | -0.141
SCN1A | 1 | -0.457
SCN1A | 2 | -0.348
SCN1A | 3 | 0.114
PTPN21 | 1 | 1.39
PTPN21 | 2 | -0.15
PTPN21 | 3 | -0.516
PTPN21 | 4 | -0.286
DUS1L | 1 | 0.0109
DUS1L | 2 | -0.204
DUS1L | 3 | -0.0453
DUS1L | 4 | -0.117
HESX1 | 1 | -0.28
HESX1 | 2 | -0.125
HESX1 | 3 | 0.24
HESX1 | 4 | 0.0535
GHRHR | 1 | -0.217
GHRHR | 2 | -0.286
GHRHR | 3 | -0.233
GHRHR | 4 | 0.579
NTMT1 | 1 | -0.289
NTMT1 | 2 | 0.0264
NTMT1 | 3 | -0.119
NTMT1 | 4 | -0.599
MCCC1 | 1 | -0.288
MCCC1 | 2 | -0.474
MCCC1 | 3 | -0.463
MCCC1 | 4 | 0.246
YARS1 | 1 | -0.297
YARS1 | 2 | -0.241
YARS1 | 3 | -0.0952

Taken from above.
Result for GM2A #2 in “log2 vehicle/camptothecin viability”: -0.171
Value for SCN1A #3 in “log2 vehicle/camptothecin viability”: 0.114
For “log2 vehicle/camptothecin viability”, GM2A #3 has -0.176
For “log2 vehicle/camptothecin viability”, SLC25A24 #3 shows 0.593
For “log2 vehicle/camptothecin viability”, GHRHR #4 is entered as 0.579
Value of GM2A #1 in “log2 vehicle/camptothecin viability”: 0.4
